Experimental data from article PMC5069765, “OsdR of Streptomyces coelicolor and the Dormancy Regulator DevR of Mycobacterium tuberculosis Control Overlapping Regulons” (mSystems, 2016).
The exact form of at least one protein or probe is not confirmed.

Columns and labels:
[1] = molecular target: T1, OsdR~P (phosphorylated with acetyl phosphate) (Streptomyces coelicolor) (UniProt Q9RI42); assay: EMSA; conditions: EMSA with 32P-labeled probes, 20 fmol DNA (50-mers), AcP phosphorylation, temperature not given (cited method)
T1 sequence: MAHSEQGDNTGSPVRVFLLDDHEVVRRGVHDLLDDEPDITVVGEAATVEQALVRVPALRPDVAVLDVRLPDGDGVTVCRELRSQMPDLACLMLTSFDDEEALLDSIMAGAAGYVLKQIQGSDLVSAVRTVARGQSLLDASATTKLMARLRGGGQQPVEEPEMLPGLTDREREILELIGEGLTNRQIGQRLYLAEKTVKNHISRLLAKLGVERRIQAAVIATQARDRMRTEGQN

[2] = molecular target: T1, OsdR~P (phosphorylated with acetyl phosphate) (Streptomyces coelicolor); assay: competition with a labelled probe; conditions: unlabeled wt competitor, 10 uM protein, 20 fmol labeled wt probe, EMSA with 32P-labeled probes, 20 fmol DNA (50-mers), AcP phosphorylation, temperature not given (cited method), recombinant protein, protein details: His6, label: 32P
[3] = AcP-phosphorylated, uM OsdR, recombinant …, protein details: His6, label: 32P, probe letters rebuilt from the primers and the genome
[4] = AcP-phosphorylated, stronger than devR, uM OsdR, recombinant protein, protein details: His6, label: 32P, probe letters rebuilt from the primers and the genome
[5] = most probes fully bound at 1 uM OsdR~P, recombinant protein, protein details: His6, label: 32P, probe letters rebuilt from the primers and the genome

AGGTCGACAGGCCCACCAGGGACCCGCCGACGACCAGGACCGGGACGCGGTGGGTCCGGTCGCCCCCGGGGGCGGCGCCGCCGGACCGGTCGGCTCTTTCGTTCATGATTCGTCCTCCGTTGTACGACAGGTGTCCGTCAGGGGTTGCGTCGGAAGTGCGTCGGGAGTGCGTCGGACGCGCGTTCAGATGCGCGTCAGGGATGCGTCAGGAGTGCGTCAGGGGTCCGAGAGGGGTCCGACCGAGGTGCGCCGGGGCCTTCATGCATGCCCCGTACGGCCCGTCGGGGCCCGCCACGGCGCAGGCTTCACCCGCTTAACCCTCCTGGTTCGCGGTCCCCGCGGGCACGGCCCACGATCGTGCTTACGCGACCGTCGCACCCCGCCGGCCTGGCGGGCGCCGCCGACGATCGCCCCAGTCCACGAGGATGACCGGAGAAGAGGTGGGCCGGATGACGGTCTCTCCCGTCGTAGCGACGGATG (double strand) [SCO5320-SCO5321 intergenic region (whiE)]
binding result [1, 3]: binds

CCCATCACCCTGCGGGCAGGGACGGTCGGCCCCGTCCCGGGACCACAGGC (double strand) [uspA (SCO0200) 50-mer wt]
binding result ([1]; AcP-phosphorylated, uM OsdR, recombinant …, protein details: His6, label: 32P): binds
binding result [2]: binds

CGGGAAGGGTGGTGGCCATTTGATGCCTCCTAATCGATGGAAACGGATGCCTTTGATCCGACCAGCCCATCGTGGCCAGGGCTAGGGACAGAAGTCCCCGAAGCGCGGGCCATTTGTCCGCGCCCGTCGGTGATCCACTTGGGGACCATTGACCCTGTTGTCTGCCAACCGCCGTTCAGA (double strand) [hspX promoter]
binding result [1, 4]: binds

CTCATCGACCGCCCACAACGCCGCATGCGTTGCCGCCCTTGACCCGTCGATACCAACGACCACTGCCCGAGCTGGCCGAGGATCGCTCATCGCCGTCTCCTTCGCTGGGGCGGATACATCCCGTCGGTTCAGCGGTACGTTACTGGCGGGGACCGCTATCTCCCAGGGGCGTTGGTCCCCACCTGAGGGCCGTTAGTCCTTATCGACCGATGACAGACGCAACCCGTCAGGGCGAGAATGAATCTCACCTATCGCACGGGTGG (double strand) [Rv3134c promoter]
binding result [1, 4]: binds

GCCGACGACGAAAACGCCGACCTGCCAGCTCAGGTGCAGCGCACGACGCGCCTTGACGAATTCCGGCGCCCGCGAACCGAGCGCCCGCTCGGCCGTGGCCTCGTCCGTCCCCGTACGGTCTGCCGCCACGGCTGCCTCGCCGGGCTTGTTACTCCCCGTGTTCATACGGCCAAACACTACCGGAGCGAAACCTGTCACCGGAATGGGCGTACGACTCGAACGGTCCATCGGCCGGAAGAGTTACGTAAACACACGCAAAACACTCAGAGGGGTTTACAACGGCACCGTAGGTGGCATGTCGATTTCGCCGACGTGCGAATCCCCGAGCGCACACTGAGCGAAAGGCCCTGGCGCTTATGAACACCACGGTCAGCTGCGAGCTGCACCTGCGCCTCGTTGTGTCGAGCGAGTCCTCCCTGCCTGTCCCCGCAGGCCTGCGGTACGACACGGCCGA (double strand) [ssgB (SCO1541) promoter]
binding result [1, 3]: binds

GTCAGAATTCCGTGCACCAAGGTGATACCGCTCCCCCGCCGCCGGGCCTCGTGAGCCGCCCAGTGCGCGGCCGCGAGGCTCGCGGGCGACCGGTCGATCCCCACCGCGATGTCGTACTCCATGACGTTTCCCCTGCCTCGTCGATCGGTTTCCGGACGTCCCCGAGCCTCCTTCTCGCCGCGGCGGGGCCGCAGGGGCCGTCCAGCCCTCCTCCGAGCCCTTCGGACCCTGCGGGGCGGGGGGCGGCACCGGGCCGACCGGCCCTCCGGCCGGGACCGCCGGTACCTCGCGCTCAGGAGGCCGGCGTTCGACGCTGGAAGGACCGAGCCCGCGACCGAGGAGCGCAGCGCCATGGCCCGTTACGTGTACGACTTCACCGAGGGCGGCCGTGACATGGCCGGACTTCTCGGTGGATCCTGAC (double strand) [SCO0207-SCO0208 intergenic region]
binding result [1, 5]: binds

GTCAGAATTCCGTGTGCTCCAGCTCGGCCAGGGCGTTGCGCACCAGGGCACGCGCCACCGGCACCGCCGCGGCGGAGTGCGGCAGTGCGATGCGCCAGGAGGCGGGTGCGGGGAAGTGATCGTGCACGGCAGGTCCGTTTCGTGGAGCAGGGGAGTCCTGTCCTGCTTTCAACCTTATGAATGGTACGGCGCCGCCCGGCAGAGCCGTTCGACGGGCACCCTCCGGGACCTTCGGCCCTCGACACGGACGGCATATCGCGCACCCGTGACGACAGTCACAGAAGGGTGATAACTTCGAGTGTCATGAGTCCTTTCACCGGCTCCGCCGCCCCCACCCCCGAGTGGCGGCACCTGGATCCTGAC (double strand) [SCO5978-SCO5979 intergenic region]
binding result [1, 5]: binds

GTCAGAATTCTGATCGCGCTGGCCGCTGTCTCGGCCGGTGACGCCCTGGGACTGGGCCGGCTGTGGGCCAGGCTCCCGATCGTCCGCGACCACGCGTGGCTGCGCTGAACACGACCGGTGGGGCGGGCCCGCCCGAGGACCCGTCCCATCACCCTGCGGGCAGGGACGGTCGGCCCCGTCCCGGGACCACAGGCCCCTGCCCCCGTAGACCGCCCGAAGAGACGCTGAGAACAGAACAGAAGACACAGGAGGTGGCCGGAATGGCCCGCACGATCACCGTAGGACTCGACGGCTCGCCGGATCCTGAC (double strand) [uspA (SCO0200) promoter]
binding result [1, 5]: binds

GTCAGAATTCTGCCGTCGTGCCTGCATCATGGATCCCCCCAGGTTGGTGGCAACTGATGTCTCTACGACGCGCGGAGGGGCGCGCACGACGGCGCGGAACGGTTCCGAAGAGATCACGGTCCGGACTCGCGGCCGGACGGGGCGGCGGACGGGGCGCCGAGCGGGCGCCGGACGGGCGCGGGGCGGACGCGCGGGTGCACGGGTCGTACGCGTACGGGCCGTACGCGTACGGGTCGCGCGGGACCTGCGGGTCGGGGCCGGGGCCGTCCGGCCCCGGGGCGGTGTCGGTGGCGTCTGAGACGCTGGGGCCATGAGCGCAAGTGAGACCCCGGCGGGCGAGTTCCCACCGGAACAGGAACCCGGACACTGCAGTGAC (double strand) [SCO6040-SCO6041 intergenic region]
binding result [1, 5]: binds

GTCAGCGCGGTTGTCGCGGAGGTGGACAATGGTGTGGTGCTGCGGCACGCATTCGAGGAGGCCAGGCTGCGCGGAGTTCCGCTGCGGGCCGTGGCTGTCCACGCTGCTGAAACACCCGATGACGTCGAACAGGGCAGCCGGTTGGCGCATGTACACCTGAGCCGTCGGCTCGCCCACTGGACCCGGCTCTACCCCGAGGTGCGGGTGGATCGGGCCATCGCCGGCGGCAGTGCGTGCCGTCATCTGGCCGCCAACGCAAAGCCGGGTCAGCTGTTCGTCGCGGACTCACACTCCGCGCACGAATTGTGCGGTGCATACCAGCCCGGATGCGCCGTACTTACGGTACGCAGTGCCAACTTGTAGGGAGCGGATCTTGGGAGTGGTGCCCTGGTGGTAAAGGTC (double strand) [devR promoter]
binding result ([1]; uM OsdR, recombinant protein, protein details: His6, label: 32P, probe letters rebuilt from the primers and the genome): binds

GTCAGGATCCACCACTTCGTGGTCGTCCAGGAGGAAGACCCTGACCGGGCTTCCCGTGTTGTCGCCCTGCTCGCTGTGCGCCATCGGATGCTCCTCGCGATGTCTCGGCCCGTGTCGGAATCCTTTCTTCCCAGGATGGCCGAGGTCCAGGGCCGGTCGGCCCCGTTTCGCCCGCGTCAGTGGGCCATGAGGCCGTGCTCGCGGAACCGGACCCGTACGCGGTCCACCAGCGTCCTGTCCGGGACCGGGGTGTCACGCAGCGGGAAGGGGACGCCCAGGGCGTCGTACTTGGCGGGAATTCTGAC (double strand) [osdR (SCO0204) promoter]
binding result [1, 5]: binds

GTCAGGATCCCTCGCGAACACCAAGGTCAGGGCGGCCCCGTGGCGTACGCGGCGGGGCTGACAGAACAGGTCACGGCCTGACATGCCGGTGAGTCTAGGACAACGCGTGAGGGCCGCACGGTCCCTCGACCGCACGGCCCTCTTGGTATGTGTCACACCTTCAGGTACTTGCGCAACGCGAAGAACGCGGCCAACGCGGGCATCAGCAGGCTCGTGGCCAGGATGAGCGGCAGCTTCGTGAATTCTGAC (double strand) [SCO2967 promoter]
binding result [1, 5]: binds
